Test results published in PMC11048174.
These are yes or no findings as the source states them, for the method shown.

By UniProt entry, the sequences of proteins in these tests, tags left out. Residues count along the entry.
UniProt P02701, residues 25-152: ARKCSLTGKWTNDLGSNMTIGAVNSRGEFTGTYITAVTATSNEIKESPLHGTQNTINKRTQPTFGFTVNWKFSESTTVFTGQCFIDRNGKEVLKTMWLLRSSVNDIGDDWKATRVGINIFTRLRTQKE

Columns and labels:
[1] = target: Avidin (obtained from egg white) (UniProt P02701); assay: SPR; MWCNT-Av deposited on a gold disk; 0.50 mg mL^-1 bLOx or LOx injected manually, batch conditions, 25 °C; amount from the change of the resonance angle after washing with phosphate buffer; both purified
[2] = target: Avidin (obtained from egg white) (UniProt P02701); assay: electrochemical impedance spectroscopy; MWCNT-Av on glassy carbon electrode, incubated with bLOx or LOx; charge transfer resistance of hydroquinone/benzoquinone at 0.050 V, 0.050 M phosphate buffer pH 7.40; both purified

binding [1]: no binding (tested: 0.50 mg mL^-1) | binding [2]: no binding
B1: non-biotinylated lactate oxidase (enzyme, UniProt Q44467 1-374)
chain: MNNNDIEYNAPSEIKYIDVVNTYDLEEEASKVVPHGGFNYIAGASGDEWTKRANDRAWKHKLLYPRLAQDVEAPDTSTEILGHKIKAPFIMAPIAAHGLAHTTKEAGTARAVSEFGTIMSISAYSGATFEEISEGLNGGPRWFQIYMAKDDQQNRDILDEAKSDGATAIILTADSTVSGNRDRDVKNKFVYPFGMPIVQRYLRGTAEGMSLNNIYGASKQKISPRDIEEIAGHSGLPVFVKGIQHPEDADMAIKRGASGIWVSNHGARQLYEAPGSFDTLPAIAERVNKRVPIVFDSGVRRGEHVAKALASGADVVALGRPVLFGLALGGWQGAYSVLDYFQKDLTRVMQLTGSQNVEDLKGLDLFDNPYGYEY
